The target of one experiment is T1, FLAG-RIG-I (UniProt O95786).
T1 sequence: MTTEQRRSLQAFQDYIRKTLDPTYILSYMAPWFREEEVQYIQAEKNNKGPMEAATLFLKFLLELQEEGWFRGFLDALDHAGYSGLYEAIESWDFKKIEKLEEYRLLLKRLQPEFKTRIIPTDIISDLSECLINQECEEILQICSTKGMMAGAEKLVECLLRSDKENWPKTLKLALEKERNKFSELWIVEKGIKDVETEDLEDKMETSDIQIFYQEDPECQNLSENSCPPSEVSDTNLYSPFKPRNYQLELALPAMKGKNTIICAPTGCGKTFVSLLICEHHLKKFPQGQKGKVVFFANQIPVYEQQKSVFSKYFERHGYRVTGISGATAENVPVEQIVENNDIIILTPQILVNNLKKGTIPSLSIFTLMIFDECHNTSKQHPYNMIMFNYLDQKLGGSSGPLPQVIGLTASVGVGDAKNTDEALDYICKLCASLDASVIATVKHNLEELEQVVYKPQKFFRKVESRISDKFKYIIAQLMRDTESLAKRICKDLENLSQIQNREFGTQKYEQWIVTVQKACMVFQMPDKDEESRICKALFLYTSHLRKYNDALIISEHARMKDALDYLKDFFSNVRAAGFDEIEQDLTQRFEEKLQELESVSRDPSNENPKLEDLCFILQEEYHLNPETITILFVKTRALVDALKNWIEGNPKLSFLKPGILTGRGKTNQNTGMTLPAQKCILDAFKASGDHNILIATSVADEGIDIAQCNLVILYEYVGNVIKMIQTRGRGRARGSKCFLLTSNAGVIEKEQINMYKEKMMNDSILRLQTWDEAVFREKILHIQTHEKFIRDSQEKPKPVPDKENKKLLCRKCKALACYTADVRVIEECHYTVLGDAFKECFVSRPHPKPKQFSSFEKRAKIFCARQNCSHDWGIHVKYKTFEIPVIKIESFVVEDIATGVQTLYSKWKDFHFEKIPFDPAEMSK
The experiment is described as follows: co-IP; anti-FLAG M2 magnetic beads (FLAG-RIG-I as bait), myc-14-3-3ε detected by blot; lysate of cells co-transfected for 24 hours and transfected with poly(I:C) for 6 hours; lysis 1% Triton-X, 150 mM NaCl; washes with 300 mM NaCl.

Sequences of proteins named here, by UniProt entry; tags and fusion partners are left off. A change or cut given only in a name is not applied to a line headed by its entry.
UniProt P62258: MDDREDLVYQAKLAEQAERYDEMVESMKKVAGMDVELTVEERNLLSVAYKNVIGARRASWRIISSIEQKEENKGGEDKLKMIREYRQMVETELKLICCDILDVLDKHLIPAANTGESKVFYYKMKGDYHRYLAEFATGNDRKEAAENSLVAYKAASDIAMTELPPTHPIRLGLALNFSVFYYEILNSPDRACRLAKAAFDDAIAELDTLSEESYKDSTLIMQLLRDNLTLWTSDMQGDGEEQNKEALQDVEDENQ

Experiment [1] deals with myc-tagged wild type 14-3-3ε (human) (UniProt P62258). The experiment is described as follows: co-IP; anti-c-Myc magnetic beads (myc-14-3-3ε as bait), FLAG-RIG-I detected by blot; lysate of cells co-transfected for 24 hours and transfected with poly(I:C) for 6 hours; lysis 1% Triton-X, 150 mM NaCl; washes with 300 mM NaCl.
The next experiment deals with myc-3CN 14-3-3ε (human) (UniProt P62258). The description is as above.

No constants are given. Whether binding was seen depends on the method and setting. Binding seen in cells or lysates may run through a third protein. Some entries that bind do so weakly or less than the wild type. Sequences can lack the tags named with a protein.

Regarding “myc-3CN 14-3-3ε (from UniProt P62258 1-236) (domain or fragment)”, in the experiment with FLAG-RIG-I, the binding entry is on record as “no binding”.

On to “myc-tagged wild type 14-3-3ε (from UniProt P62258 1-255)”, for which the binding entry with FLAG-RIG-I is listed as “binds”.

B1: FLAG-RIG-I (protein, UniProt O95786 1-925)
chain: T1 sequence
In the case of B1, the binding entry in experiment [1] is “binds”; with myc-3CN 14-3-3ε (human), “no binding”.

These data come from PMC10506458.
